In article doi:10.1101/2022.10.11.511735:
These are yes or no findings as the source states them, for the method shown. In cells and extracts the contact can be indirect. Some entries that bind do so weakly or less than the wild type. Where a sequence is shown, tags or fusion partners need not be part of it.

Chains of the proteins cited; added tags and fusions are not shown.
UniProt Q12983: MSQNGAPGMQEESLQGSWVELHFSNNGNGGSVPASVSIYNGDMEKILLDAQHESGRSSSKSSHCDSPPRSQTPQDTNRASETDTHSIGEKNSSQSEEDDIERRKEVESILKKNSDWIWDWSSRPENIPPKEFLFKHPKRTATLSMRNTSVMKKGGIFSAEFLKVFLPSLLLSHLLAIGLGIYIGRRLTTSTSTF
UniProt O60238: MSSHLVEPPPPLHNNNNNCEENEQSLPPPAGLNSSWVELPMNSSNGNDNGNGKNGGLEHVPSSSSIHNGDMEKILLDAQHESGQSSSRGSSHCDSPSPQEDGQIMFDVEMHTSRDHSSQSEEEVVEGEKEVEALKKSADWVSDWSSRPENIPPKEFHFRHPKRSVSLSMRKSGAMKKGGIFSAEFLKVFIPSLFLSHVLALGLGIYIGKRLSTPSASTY

What was measured:
GFP-BNIP3 = GFP-BNIP3 (UniProt Q12983); assay: co-IP
GFP-NIX = GFP-NIX (UniProt O60238); assay: co-IP

binding (GFP-BNIP3): binds
binding (GFP-NIX): binds
B1: FBXL4-3xFlag (protein, UniProt Q9UKA2 1-621)
chain: MSPVFPMLTVLTMFYYICLRRRARTATRGEMMNTHRAIESNSQTSPLNAEVVQYAKEVVDFSSHYGSENSMSYTMWNLAGVPNVFPSSGDFTQTAVFRTYGTWWDQCPSASLPFKRTPPNFQSQDYVELTFEQQVYPTAVHVLETYHPGAVIRILACSANPYSPNPPAEVRWEILWSERPTKVNASQARQFKPCIKQINFPTNLIRLEVNSSLLEYYTELDAVVLHGVKDKPVLSLKTSLIDMNDIEDDAYAEKDGCGMDSLNKKFSSAVLGEGPNNGYFDKLPYELIQLILNHLTLPDLCRLAQTCKLLSQHCCDPLQYIHLNLQPYWAKLDDTSLEFLQSRCTLVQWLNLSWTGNRGFISVAGFSRFLKVCGSELVRLELSCSHFLNETCLEVISEMCPNLQALNLSSCDKLPPQAFNHIAKLCSLKRLVLYRTKVEQTALLSILNFCSELQHLSLGSCVMIEDYDVIASMIGAKCKKLRTLDLWRCKNITENGIAELASGCPLLEELDLGWCPTLQSSTGCFTRLAHQLPNLQKLFLTANRSVCDTDIDELACNCTRLQQLDILGTRMVSPASLRKLLESCKDLSLLDVSFCSQIDNRAVLELNASFPKVFIKKSFTQ
